Values quoted from earlier work as cited in US20090318371A1 (priority 2006, published 2009).

Conditions: long term studies in animals

## CCC[C@@H]1C[C@@H](C(=O)N[C@@H]([C@H]2O[C@H](SC)[C@H](O)[C@@H](O)[C@H]2O)[C@H](C)Cl)N(C)C1 [Clindamycin]
  Carcinogenesis, mutagenesis, teratogenesis effects and effects on fertility: without developing carcinogenesis, mutagenesis, teratogenesis effects nor on fertility
